Assay results reported in US20260124213A1, “STAPHYLOCOCCUS AUREUS PBP4 INHIBITORS AND METHOD OF USE” (UNIVERSITY OF ROCHESTER, priority 2022, published 2026).
“Also recorded” adds a separate entry of the source. At least one compound was matched to its structure with a doubt left.

Protein sequences, listed by entry. Tags and fused reporters are not part of them. Residues count along the entry.
UniProt P40750, 22-624: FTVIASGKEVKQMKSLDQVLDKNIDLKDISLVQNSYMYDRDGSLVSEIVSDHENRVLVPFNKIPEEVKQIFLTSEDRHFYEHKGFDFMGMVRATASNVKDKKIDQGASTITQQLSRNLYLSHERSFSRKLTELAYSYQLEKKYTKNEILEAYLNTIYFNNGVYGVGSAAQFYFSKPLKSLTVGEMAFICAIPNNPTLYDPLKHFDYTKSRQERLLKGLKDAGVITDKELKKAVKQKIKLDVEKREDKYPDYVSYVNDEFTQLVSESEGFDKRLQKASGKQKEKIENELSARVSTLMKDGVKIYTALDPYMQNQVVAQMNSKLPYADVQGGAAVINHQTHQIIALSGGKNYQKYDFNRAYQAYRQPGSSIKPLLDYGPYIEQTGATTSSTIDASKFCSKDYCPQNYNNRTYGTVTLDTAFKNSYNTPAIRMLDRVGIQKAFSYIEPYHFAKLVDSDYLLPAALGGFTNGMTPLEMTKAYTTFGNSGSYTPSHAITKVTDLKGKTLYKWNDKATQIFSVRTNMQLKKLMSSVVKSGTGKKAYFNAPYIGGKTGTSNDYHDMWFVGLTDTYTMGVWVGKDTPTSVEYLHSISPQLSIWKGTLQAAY

Target: recombinant B. subtilis PBP4 (Bacillus subtilis, UniProt P40750)
Assay: BOCILLIN FL fluorescence polarization binding competition
Method: PBP4 BOCILLIN™ FL Binding Competition Assays. The ability of putative PBP4 inhibitors to impact the active site of recombinant PBP4 was assessed using two previously established BOCILLIN™-FL Penicillin (Penicillin V conjugated to BODIPY fluorescent dye) binding assays. First, fluorescence polarization assays were performed as previously described. Briefly, the indicated amount of the putative PBP4 inhibitor or control antibiotic was incubated with 1 μM recombinant B. subtilis PBP4 or S. aureus PBP2a in potassium phosphate buffer (40 mM K2HPO4 and 10 mM KH2PO4) for 1 hour in black 96-well microtiter plates (Corning Life Sciences®, Corning, NY). […] BOCILLIN™ FL fluorescence polarization was measured at (495nm excitation and 545nm emission) in a SpectraMax® M5 multimode plate reader (Molecular Devices®, San Jose, CA). […] Second, gel electrophoresis and fluorescence detection were used to measure BOCILLIN™ FL labeling of PBP4 treated with the known PBP4 inhibitor cefoxitin (positive control), kanamycin (negative control) or 9314848 (test compound). […] BOCILLIN™ FL labeled PBP4 was imaged at λ=365 nm using a BioRad© Gel Doc EZ™ Imaging system and the gel was then subsequently stained with Bio-safe Coomassie Brilliant Blue stain (BioRad©, Hercules, CA, USA) to measure the amount of protein present in each reaction condition and analyzed using NIH-ImageJ software. […]

NC[C@H]1O[C@H](O[C@H]2[C@H](O)[C@@H](O[C@H]3O[C@H](CO)[C@@H](O)[C@H](N)[C@H]3O)[C@H](N)C[C@@H]2N)[C@H](O)[C@@H](O)[C@@H]1O [kanamycin]
Effect of preincubation on BOCILLIN FL binding to PBP4 (fluorescence polarization): had no impact on BOCILLIN™ FL binding; also recorded: no inhibitory effect
